Data from patent publication US20160113911A1, “METHODS AND COMPOSITIONS FOR THE TREATMENT OF CANCER” (THE GENERAL HOSPITAL CORPORATION, priority 2013, published 2016).

B1: 2A-R1025C*: KDM4A mutation (protein, UniProt O75164 2-1064, looked up, variant R1025C)
Lysine-specific demethylase 4A: ASESETLNPSARIMTFYPTMEEFRNFSRYIAYIESQGAHRAGLAKVVPPKEWKPRASYDDIDDLVIPAPIQQLVTGQSGLFTQYNIQKKAMTVREFRKIANSDKYCTPRYSEFEELERKYWKNLTFNPPIYGADVNGTLYEKHVDEWNIGRLRTILDLVEKESGITIEGVNTPYLYFGMWKTSFAWHTEDMDLYSINYLHFGEPKSWYSVPPEHGKRLERLAKGFFPGSAQSCEAFLRHKMTLISPLMLKKYGIPFDKVTQEAGEFMITFPYGYHAGFNHGFNCAESTNFATRRWIEYGKQAVLCSCRKDMVKISMDVFVRKFQPERYKLWKAGKDNTVIDHTLPTPEAAEFLKESELPPRAGNEEECPEEDMEGVEDGEEGDLKTSLAKHRIGTKRHRVCLEIPQEVSQSELFPKEDLSSEQYEMTECPAALAPVRPTHSSVRQVEDGLTFPDYSDSTEVKFEELKNVKLEEEDEEEEQAAAALDLSVNPASVGGRLVFSGSKKKSSSSLGSGSSRDSISSDSETSEPLSCRAQGQTGVLTVHSYAKGDGRVTVGEPCTRKKGSAARSFSERELAEVADEYMFSLEENKKSKGRRQPLSKLPRHHPLVLQECVSDDETSEQLTPEEEAEETEAWAKPLSQLWQNRPPNFEAEKEFNETMAQQAPHCAVCMIFQTYHQVEFGGFNQNCGNASDLAPQKQRTKPLIPEMCFTSTGCSTDINLSTPYLEEDGTSILVSCKKCSVRVHASCYGVPPAKASEDWMCSRCSANALEEDCCLCSLRGGALQRANDDRWVHVSCAVAILEARFVNIAERSPVDVSKIPLPRFKLKCIFCKKRRKRTAGCCVQCSHGRCPTAFHVSCAQAAGVMMQPDDWPFVVFITCFRHKIPNLERAKGALQSITAGQKVISKHKNGRFYQCEVVRLTTETFYEVNFDDGSFSDNLYPEDIVSQDCLQFGPPAEGEVVQVRWTDGQVYGAKFVASHPIQMYQVEFEDGSQLVVKRDDVYTLDEELPKRVKSRLSVASDMCFNEIFTEKEVKQEKKRQRVINSRYREDYIEPALYRAIME
B2: 2A-E1032K: KDM4A mutation (protein)
chain: MASESETLNPSARIMTFYPTMEEFRNFSRYIAYIESQGAHRAGLAKVVPPKEWKPRASYDDIDDLVIPAPIQQLVTGQSGLFTQYNIQKKAMTVREFRKIANSDKYCTPRYSEFEELERKYWKNLTFNPPIYGADVNGTLYEKHVDEWNIGRLRTILDLVEKESGITIEGVNTPYLYFGMWKTSFAWHTEDMDLYSINYLHFGEPKSWYSVPPEHGKRLERLAKGFFPGSAQSCEAFLRHKMTLISPLMLKKYGIPFDKVTQEAGEFMITFPYGYHAGFNHGFNCAESTNFATRRWIEYGKQAVLCSCRKDMVKISMDVFVRKFQPERYKLWKAGKDNTVIDHTLPTPEAAEFLKESELPPRAGNEEECPEEDMEGVEDGEEGDLKTSLAKHRIGTKRHRVCLEIPQEVSQSELFPKEDLSSEQYEMTECPAALAPVRPTHSSVRQVEDGLTFPDYSDSTEVKFEELKNVKLEEEDEEEEQAAAALDLSVNPASVGGRLVFSGSKKKSSSSLGSGSSRDSISSDSETSEPLSCRAQGQTGVLTVHSYAKGDGRVTVGEPCTRKKGSAARSFSERELAEVADEYMFSLEENKKSKGRRQPLSKLPRHHPLVLQECVSDDETSEQLTPEEEAEETEAWAKPLSQLWQNRPPNFEAEKEFNETMAQQAPHCAVCMIFQTYHQVEFGGFNQNCGNASDLAPQKQRTKPLIPEMCFTSTGCSTDINLSTPYLEEDGTSILVSCKKCSVRVHASCYGVPPAKASEDWMCSRCSANALEEDCCLCSLRGGALQRANDDRWVHVSCAVAILEARFVNIAERSPVDVSKIPLPRFKLKCIFCKKRRKRTAGCCVQCSHGRCPTAFHVSCAQAAGVMMQPDDWPFVVFITCFRHKIPNLERAKGALQSITAGQKVISKHKNGRFYQCEVVRLTTETFYEVNFDDGSFSDNLYPEDIVSQDCLQFGPPAEGEVVQVRWTDGQVYGAKFVASHPIQMYQVEFEDGSQLVVKRDDVYTLDEELPKRVKSRLSVASDMRFNEIFTKKEVKQEKKRQRVINSRYREDYIEPALYRAIME
B3: 2A-E23K: KDM4A mutation (protein)
chain: B2 chain with E23K, K1032E
B4: 2A-S28N: KDM4A mutation (protein)
chain: B2 chain with S28N, K1032E
B5: Q88R: KDM4D mutation (protein)
chain: METMKSKANCAQNPNCNIMIFHPTKEEFNDFDKYIAYMESQGAHRAGLAKIIPPKEWKARETYDNISEILIATPLQQVASGRAGVFTRYHKKKKAMTVGEYRHLANSKKYQTPPHQNFEDLERKYWKNRIYNSPIYGADISGSLFDENTKQWNLGHLGTIQDLLEKECGVVIEGVNTPYLYFGMWKTTFAWHTEDMDLYSINYLHLGEPKTWYVVPPEHGQRLERLARELFPGSSRGCGAFLRHKVALISPTVLKENGIPFNRITQEAGEFMVTFPYGYHAGFNHGFNCAEAINFATPRWIDYGKMASQCSCGEARVTFSMDAFVRILQPERYDLWKRGQDRAVVDHMEPRVPASQELSTQKEVQLPRRAALGLRQLPSHWARHSPWPMAARSGTRCHTLVCSSLPRRSAVSGTATQPRAAAVHSSKKPSSTPSSTPGPSAQIIHPSNGRRGRGRPPQKLRAQELTLQTPAKRPLLAGTTCTASGPEPEPLPEDGALMDKPVPLSPGLQHPVKASGCSWAPVP
B6: R102C: KDM4D mutation (protein)
chain: B5 chain with R88Q, R102C
B7: R123P: KDM4D mutation (protein)
chain: B5 chain with R88Q, R123P
B8: K210N: KDM4D mutation (protein)
chain: B5 chain with R88Q, K210N
B9: V214L*: KDM4D mutation (protein, UniProt Q6B0I6 1-523, looked up, variant V214L)
Lysine-specific demethylase 4D: B5 chain with R88Q, V214L
B10: R243W: KDM4D mutation (protein)
chain: B5 chain with R88Q, R243W
B11: A247D: KDM4D mutation (protein)
chain: B5 chain with R88Q, A247D
B12: P260H: KDM4D mutation (protein)
chain: B5 chain with R88Q, P260H
B13: R263H: KDM4D mutation (protein)
chain: B5 chain with R88Q, R263H
B14: E270D: KDM4D mutation (protein)
chain: B5 chain with R88Q, E270D
B15: P276L: KDM4D mutation (protein)
chain: B5 chain with R88Q, P276L
B16: R316W: KDM4D mutation (protein)
chain: B5 chain with R88Q, R316W
B17: R332H: KDM4D mutation (protein)
chain: B5 chain with R88Q, R332H
B18: K337R: KDM4D mutation (protein)
chain: B5 chain with R88Q, K337R
B19: R338C: KDM4D mutation (protein)
chain: B5 chain with R88Q, R338C
B20: V345M: KDM4D mutation (protein)
chain: B5 chain with R88Q, V345M
B21: P350S: KDM4D mutation (protein)
chain: B5 chain with R88Q, P350S
B22: G373C: KDM4D mutation (protein)
chain: B5 chain with R88Q, G373C
B23: R375I: KDM4D mutation (protein)
chain: B5 chain with R88Q, R375I
B24: R392H: KDM4D mutation (protein)
chain: B5 chain with R88Q, R392H
B25: S393I: KDM4D mutation (protein)
chain: B5 chain with R88Q, S393I
B26: G394E: KDM4D mutation (protein)
chain: B5 chain with R88Q, G394E
B27: R419Q: KDM4D mutation (protein)
chain: B5 chain with R88Q, R419Q
B28: S484L: KDM4D mutation (protein)
chain: B5 chain with R88Q, S484L
B29: E487K: KDM4D mutation (protein)
chain: B5 chain with R88Q, E487K

experiment: Subcellular localization of KDM4 variants (immunofluorescence); type: cell-based; details: KDM4A mutations; % nuclear

Molecule | Localization
B1 | ++ (++ indicates 60-79% nuclear)
B2 | ++ (++ indicates 60-79% nuclear)
B3 | − (− indicates 20-39% nuclear)
B4 | +++ (+++ indicates >80% nuclear)

same assay, conditions: KDM4D mutations

Molecule | Localization
B5 | +++ (+++ indicates >80% nuclear)
B6 | +++ (+++ indicates >80% nuclear)
B7 | − (− indicates 20-39% nuclear)
B8 | − (− indicates 20-39% nuclear)
B9 | − (− indicates 20-39% nuclear)
B10 | − (− indicates 20-39% nuclear)
B11 | − (− indicates 20-39% nuclear)
B12 | +++ (+++ indicates >80% nuclear)
B13 | +++ (+++ indicates >80% nuclear)
B14 | − (− indicates 20-39% nuclear)
B15 | − (− indicates 20-39% nuclear)
B16 | − (− indicates 20-39% nuclear)
B17 | +++ (+++ indicates >80% nuclear)
B18 | +++ (+++ indicates >80% nuclear)
B19 | +++ (+++ indicates >80% nuclear)
B20 | +++ (+++ indicates >80% nuclear)
B21 | +++ (+++ indicates >80% nuclear)
B22 | +++ (+++ indicates >80% nuclear)
B23 | +++ (+++ indicates >80% nuclear)
B24 | +++ (+++ indicates >80% nuclear)
B25 | +++ (+++ indicates >80% nuclear)
B26 | +++ (+++ indicates >80% nuclear)
B27 | − (− indicates 20-39% nuclear)
B28 | +++ (+++ indicates >80% nuclear)
B29 | +++ (+++ indicates >80% nuclear)

Positions count from the first letter of the chain named. Names may count otherwise.
